PubChem BioAssay AID1259261 – Sanger Institute – 2017
Screen: 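Kinase knock-downs that kill colorectal cancer cells or boost targeted drugs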 (primary screen). Cells: HCC2998 human colorectal cancer cells. Reagent: siRNA pool against human genes. Treatment: anchor drugs BYL719 1 µM, cetuximab 5 µg/ml or trametinib 10 nM, each compared with DMSO vehicle. Measurement: 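Cell viability relative to non-targeting siRNA, averaged over replicates, with robust z-score for siRNA alone and synergy scores with each anchor drug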. Direction: viability z-score, knock-down alone: higher = more viable cells than controls; viability fraction, knock-down alone: higher = more viable cells; synergy score with BYL719: higher = stronger combined killing with BYL719. Rule for the call: 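a knock-down is called essential if its robust z-score without drug is under -3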. Meaning of the calls: active = essential; inactive = no change.
The whole screen tested 794 reagents; this is a part drawn at random. In the full data, 10 (1.3%) got an active call. 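Calls reflect knock-down alone without drug; synergy scores with BYL719, cetuximab or trametinib do not affect calls.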 Viability is capped at 1. Not all columns of the deposit are shown. Reagent sequences are not shown. The record does not give: the amount of reagent, the time to read-out.

no.	target gene	viability z-score, knock-down alone	viability fraction, knock-down alone	synergy score with BYL719	activity call
1	NEK6 (NIMA related kinase 6)	1.21	1	-0.0838	inactive
2	CDC42BPB (CDC42 binding protein kinase beta)	1.21	1	-0.00208	inactive
3	BMP2K (BMP2 inducible kinase)	-0.377	0.802	0.0632	inactive
4	RPS6KC1 (ribosomal protein S6 kinase C1)	1.21	1	-0.103	inactive
5	CDKN1A (cyclin dependent kinase inhibitor 1A)	1.21	1	-0.00905	inactive
6	SNRK (SNF related kinase)	0.1	0.861	-0.0464	inactive
7	GRK1 (G protein-coupled receptor kinase 1)	1.21	1	-0.0933	inactive
8	MAPK8 (mitogen-activated protein kinase 8)	-0.0385	0.844	-0.0242	inactive
9	DDR1 (discoidin domain receptor tyrosine kinase 1)	0.377	0.896	-0.000542	inactive
10	PFKM (phosphofructokinase, muscle)	-1.84	0.618	-0.0651	inactive
11	MAP3K10 (mitogen-activated protein kinase kinase kinase 10)	0.426	0.902	-0.0718	inactive
12	PRKCB (protein kinase C beta)	-1.16	0.703	-0.0756	inactive
13	MAP4K2 (mitogen-activated protein kinase kinase kinase kinase 2)	-1.85	0.617	-0.0998	inactive
14	NRAS (NRAS proto-oncogene, GTPase)	-0.0955	0.837	-0.12	inactive
15	FN1 (fibronectin 1)	1.16	0.994	0.137	inactive
16	NADK (NAD kinase)	0.831	0.953	-0.00927	inactive
17	PIK3C2B	1.04	0.979	0.0636	inactive
18	IRAK2 (interleukin 1 receptor associated kinase 2)	1.21	1	-0.0608	inactive
19	FYN (FYN proto-oncogene, Src family tyrosine kinase)	0.336	0.891	0.0163	inactive
20	PANK1 (pantothenate kinase 1)	1.21	1	-0.00639	inactive
21	PRKACA (protein kinase cAMP-activated catalytic subunit alpha)	0.321	0.889	-0.00518	inactive
22	BCKDK (branched chain keto acid dehydrogenase kinase)	1.21	1	-0.0375	inactive
23	DGKI (diacylglycerol kinase iota)	1.21	1	-0.0459	inactive
24	CDC7 (cell division cycle 7)	-0.0189	0.846	0.0874	inactive
25	DCLK1 (doublecortin like kinase 1)	-0.9	0.736	-0.0659	inactive
26	ROCK1 (Rho associated coiled-coil containing protein kinase 1)	1.19	0.998	-0.000858	inactive
27	DCLK3 (doublecortin like kinase 3)	0.077	0.859	-0.154	inactive
28	TRIO (trio Rho guanine nucleotide exchange factor)	0.00161	0.849	-0.0921	inactive
29	DLG2 (discs large MAGUK scaffold protein 2)	0.523	0.914	-0.0236	inactive
30	MPP2 (MAGUK p55 scaffold protein 2)	0.809	0.95	0.111	inactive
31	PDGFRB (platelet derived growth factor receptor beta)	0.126	0.865	0.132	inactive
32	SLK (STE20 like kinase)	1.12	0.989	-0.118	inactive
33	STK36 (serine/threonine kinase 36)	-1.36	0.678	-0.235	inactive
34	CAMK1G (calcium/calmodulin dependent protein kinase IG)	1.19	0.998	0.0177	inactive
